The list does not hold the whole screen: it is rich in T/C values a quarter to a half above the control, in often repeated tests (any T/C) and in doses without a T/C. Other doses and runs of a compound stand elsewhere. T/C: endpoint of the treated group in % of that of the vehicle group. Some doses have a count of surviving animals in place of a T/C: the source holds a T/C of zero for them, seemingly a mark for toxic or unscored doses. Some survivor counts are full or nearly so, which does not show that the dose was tolerated: survival well below the control is almost never listed, so the zero probably covers shortened survival too. Counts of survivors are from the toxicity check (mostly the fifth day) where no day follows; animals may have died later. Schedules are NCI's codes, read here as Q, the interval in days (D) or hours (H), X, the number of doses. Some doses were run more than once; the results are listed from low to high. Some schedule codes hold Z or #, which are not explained here. For survival time, this PubChem deposit counts one and a half times the control or more as active, and values a quarter to a half above the control carry no call in these data; other NCI protocols may use other cut-offs. Marks such as (2×) stand for listed records that agree. Some T/C values are followed by the survivors on the day toxicity was checked, most often the fifth; without a count, all were alive then.
System: L1210 leukemia ip in BDF1 mice, survival T/C
Assay: NCI In Vivo Anticancer Drug Screen. Data for tumor model L1210 Leukemia (intraperitoneal) in B6D2F1 (BDF1) mice
Conditions: T/C endpoint: mean survival time, higher T/C = longer survival
[1] = dose: 4.87 mg/kg/injection, schedule: Q01DX009 (ip), vehicle: saline
[2] = dose: 100.0 mg/kg/injection, schedule: Q01DX001 (ip), vehicle: saline
[3] = dose: 200.0 mg/kg/injection, schedule: Q01DX001 (ip), vehicle: saline
[4] = dose: 400.0 mg/kg/injection, schedule: Q01DX001 (ip), vehicle: saline
[5] = dose: 100.0 mg/kg/injection, schedule: Q01DX009 (ip), vehicle: saline
[6] = dose: 0.25 mg/kg/injection, schedule: Q01DX Z (ip), vehicle: saline
[7] = dose: 0.5 mg/kg/injection, schedule: Q01DX Z (ip), vehicle: saline
[8] = dose: 4.0 mg/kg/injection, schedule: Q01DX001 (ip), vehicle: saline
[9] = dose: 8.0 mg/kg/injection, schedule: Q01DX001 (ip), vehicle: saline
[10] = dose: 200.0 mg/kg/injection, schedule: Q01DX009 (ip), vehicle: Klucel (hydroxypropylcellulose) (HPC)
[11] = dose: 100.0 mg/kg/injection, schedule: Q04DX003 (ip), vehicle: saline
[12] = dose: 200.0 mg/kg/injection, schedule: Q04DX003 (ip), vehicle: saline
[13] = dose: 400.0 mg/kg/injection, schedule: Q04DX003 (ip), vehicle: saline
[14] = dose: 50.0 mg/kg/injection, schedule: Q01DX009 (ip), vehicle: saline

Q: How did the survivor count (dose: 2.14 mg/kg/injection, schedule: Q01DX009 (ip), vehicle: saline) turn out when `Clc1cc(N2CC2)nc(N2CC2)n1` was run?
A: 6 of 6

Q: What about the T/C (dose: 3.12 mg/kg/injection, schedule: Q04DX003 (ip), vehicle: saline) of the same molecule?
A: 135 % of control

Q: What about the survivor count (dose: 3.25 mg/kg/injection, schedule: Q01DX009 (ip), vehicle: saline) of the same molecule?
A: 6 of 6

Q: What about the T/C (dose: 4.12 mg/kg/injection, schedule: Q04DX003 (ip), vehicle: saline) of the same molecule?
A: 143 % of control

Q: And the T/C (dose: 4.5 mg/kg/injection, schedule: Q01DX009 (ip), vehicle: carboxymethylcellulose (CMC))?
A: 140 % of control

Q: And the T/C [1]?
A: 133 % of control

Q: What about the survivor count [1] of the same molecule?
A: 6 of 6

Q: What about the T/C (dose: 5.0 mg/kg/injection, schedule: Q01DX001 (ip), vehicle: saline) of the same molecule?
A: 132 % of control

Q: What about the survivor count (dose: 6.5 mg/kg/injection, schedule: Q01DX009 (ip), vehicle: saline with Tween-80) of the same molecule?
A: 6 of 6

Q: And the T/C (dose: 7.0 mg/kg/injection, schedule: Q01DX001 (ip), vehicle: saline)?
A: 135 % of control

Q: And the T/C (dose: 10.0 mg/kg/injection, schedule: Q01DX001 (ip), vehicle: carboxymethylcellulose (CMC))?
A: 129 % of control

Q: What about the survivor count (dose: 13.0 mg/kg/injection, schedule: Q01DX009 (ip), vehicle: saline with Tween-80) of the same molecule?
A: 4 of 6

Q: What about the T/C (dose: 13.0 mg/kg/injection, schedule: Q04DX003 (ip), vehicle: saline) of the same molecule?
A: 128 % of control

Q: And the T/C (dose: 15.0 mg/kg/injection, schedule: Q01DX001 (ip), vehicle: carboxymethylcellulose (CMC))?
A: 138 % of control

Q: And the survivor count (dose: 20.0 mg/kg/injection, schedule: Q01DX001 (ip), vehicle: saline)?
A: 1 of 6

Q: And the survivor count (dose: 21.0 mg/kg/injection, schedule: Q04DX003 (ip), vehicle: saline)?
A: 2 of 6

Q: And the survivor count (dose: 30.0 mg/kg/injection, schedule: Q04DX003 (ip), vehicle: saline)?
A: 3 of 6

Q: What about the survivor count (dose: 40.0 mg/kg/injection, schedule: Q01DX001 (ip), vehicle: saline) of the same molecule?
A: 0 of 6

Q: And the survivor count (dose: 80.0 mg/kg/injection, schedule: Q01DX001 (ip), vehicle: saline)?
A: 0 of 6

Q: And the survivor count [2]?
A: 0 of 6

Q: What about the survivor count [3] of the same molecule?
A: 0 of 6

Q: What about the survivor count [4] of the same molecule?
A: 0 of 6

Q: Which survivor count (dose: 400.0 mg/kg/injection, schedule: Q01DX009 (ip), vehicle: saline with Tween-80) does the source give for `CC(=O)Oc1cccc(C)c1` here?
A: 0 of 6

Q: For `CCN(CC)CCn1c(=O)c2ccccc2c2ccccc21`, which survivor count [5] is on record?
A: 3 of 6

Q: And the survivor count [3]?
A: 1 of 4

Q: And the survivor count (dose: 200.0 mg/kg/injection, schedule: Q01DX009 (ip), vehicle: saline)?
A: 0 of 6

Q: What about the survivor count [4] of the same molecule?
A: 0 of 4

Q: `Nc1nc(N)c2nc(CNc3ccc(C(=O)NC(CCC(=O)O)C(=O)O)cc3)cnc2n1` (stereo not given) was tested. Which T/C (dose: 0.02 mg/kg/injection, schedule: Q01DX Z (ip), vehicle: saline) did it give?
A: 141 % of control

Q: And the T/C (dose: 0.05 mg/kg/injection, schedule: Q01DX009 (ip), vehicle: saline)?
A: 94 (3×) and 98 % of control

Q: And the T/C (dose: 0.05 mg/kg/injection, schedule: Q01DX Z (sc), vehicle: saline)?
A: 139 % of control

Q: And the T/C (dose: 0.06 mg/kg/injection, schedule: Q01DX Z (ip), vehicle: saline)?
A: 137 and 144 % of control

Q: And the T/C (dose: 0.1 mg/kg/injection, schedule: Q01DX006 (iv), vehicle: saline)?
A: 129 % of control

Q: And the T/C (dose: 0.1 mg/kg/injection, schedule: Q01DX009 (ip), vehicle: saline)?
A: 88, 92, 97, 108 % of control

Q: And the T/C (dose: 0.1 mg/kg/injection, schedule: Q01DX010 (ip), vehicle: other)?
A: 127 % of control

Q: And the T/C (dose: 0.1 mg/kg/injection, schedule: Q01DX Z (ip), vehicle: saline)?
A: 141 % of control

Q: What about the T/C (dose: 0.1 mg/kg/injection, schedule: Q01DX Z (sc), vehicle: saline) of the same molecule?
A: 127 % of control (2×)

Q: And the T/C (dose: 0.2 mg/kg/injection, schedule: Q01DX006 (iv), vehicle: saline)?
A: 145 % of control

Q: What about the T/C (dose: 0.2 mg/kg/injection, schedule: Q01DX009 (ip), vehicle: saline) of the same molecule?
A: 94, 97, 101, 108 % of control

Q: And the T/C [6]?
A: 133 % of control

Q: What about the survivor count [6] of the same molecule?
A: 2 of 6

Q: And the T/C (dose: 0.4 mg/kg/injection, schedule: Q01DX009 (ip), vehicle: saline)?
A: 94, 96, 105, 125 % of control

Q: What about the survivor count (dose: 0.4 mg/kg/injection, schedule: Q01DX010 (ip), vehicle: other) of the same molecule?
A: 6 of 6

Q: And the survivor count (dose: 0.5 mg/kg/injection, schedule: Q01DX006 (iv), vehicle: saline)?
A: 3 of 6

Q: What about the survivor count (dose: 0.5 mg/kg/injection, schedule: Q01DX Z (im), vehicle: saline) of the same molecule?
A: 3 of 6

Q: What about the T/C [7] of the same molecule?
A: 86 % of control [4 of 6 alive]

Q: What about the survivor count [7] of the same molecule?
A: 2 of 6, 3 of 6, 4 of 6

Q: What about the T/C (dose: 1.0 mg/kg/injection, schedule: Q01DX001 (ip), vehicle: saline) of the same molecule?
A: 125 % of control

Q: What about the survivor count (dose: 1.0 mg/kg/injection, schedule: Q01DX Z (ip), vehicle: saline) of the same molecule?
A: 3 of 6

Q: And the survivor count (dose: 1.0 mg/kg/injection, schedule: Q01DX Z (oral), vehicle: saline)?
A: 4 of 6

Q: What about the survivor count (dose: 1.0 mg/kg/injection, schedule: Q01DX Z (sc), vehicle: saline) of the same molecule?
A: 3 of 6

Q: What about the survivor count (dose: 2.0 mg/kg/injection, schedule: Q01DX Z (oral), vehicle: saline) of the same molecule?
A: 1 of 6

Q: And the T/C [8]?
A: 106, 121, 138 % of control

Q: And the survivor count [8]?
A: 3 of 6

Q: What about the T/C [9] of the same molecule?
A: 98, 120, 132 % of control

Q: What about the survivor count [9] of the same molecule?
A: 3 of 6

Q: And the survivor count (dose: 16.0 mg/kg/injection, schedule: Q01DX001 (ip), vehicle: saline)?
A: 3 of 6

Q: And the survivor count (dose: 32.0 mg/kg/injection, schedule: Q01DX001 (ip), vehicle: saline)?
A: 0 of 6

Q: What about the survivor count (dose: 128.0 mg/kg/injection, schedule: Q01DX001 (ip), vehicle: saline) of the same molecule?
A: 6 of 6

Q: And the survivor count (dose: 256.0 mg/kg/injection, schedule: Q01DX001 (ip), vehicle: saline)?
A: 6 of 6

Q: What about the survivor count (dose: 512.0 mg/kg/injection, schedule: Q01DX001 (ip), vehicle: saline) of the same molecule?
A: 6 of 6

Q: And the survivor count (dose: 1024.0 mg/kg/injection, schedule: Q01DX001 (ip), vehicle: saline)?
A: 6 of 6

Q: How did the survivor count (dose: 50.0 mg/kg/injection, schedule: Q01DX009 (ip), vehicle: Klucel (hydroxypropylcellulose) (HPC)) turn out when `CCCCCCCCCCCCCCCCCC[N+]1(C)CCOCC1` was run?
A: 3 of 3

Q: What about the survivor count (dose: 100.0 mg/kg/injection, schedule: Q01DX009 (ip), vehicle: Klucel (hydroxypropylcellulose) (HPC)) of the same molecule?
A: 1 of 3

Q: What about the survivor count [10] of the same molecule?
A: 0 of 3

Q: How did the survivor count (dose: 400.0 mg/kg/injection, schedule: Q01DX009 (sc), vehicle: olive oil, sesame oil, peanut oil) turn out when `OC(c1ccc(Cl)cc1)(c1ccc(Cl)cc1)C(F)(F)F` was run?
A: 6 of 6

Q: Which results are given for `c1ccc(CN2CCNCC2)cc1`?
A: survivor count [11]: 2 of 6; survivor count [12]: 0 of 6; survivor count [13]: 0 of 6

Q: What does the source list for `CC(C)c1ccc(/C=C2\CSC/C(=C/c3ccc(C(C)C)cc3)C2=O)cc1`?
A: survivor count [14]: 5 of 6; survivor count [2]: 6 of 6; survivor count [5]: 4 of 6; survivor count [4]: 6 of 6

Q: For `Cc1cc(NC(=S)Nc2ccccc2)c(NC(=S)Nc2ccccc2)cc1C`, which survivor count (dose: 200.0 mg/kg/injection, schedule: Q01DX005 (ip), vehicle: Klucel (hydroxypropylcellulose) (HPC)) is on record?
A: 2 of 3 and 3 of 3

Q: What about the survivor count (dose: 225.0 mg/kg/injection, schedule: Q01DX009 (ip), vehicle: Klucel (hydroxypropylcellulose) (HPC)) of the same molecule?
A: 1 of 3

Q: What about the survivor count (dose: 400.0 mg/kg/injection, schedule: Q01DX005 (ip), vehicle: Klucel (hydroxypropylcellulose) (HPC)) of the same molecule?
A: 1 of 3

Q: With `Cc1cccc(NC(=O)Oc2ccccc2C(N)=O)c1` as the molecule, how does the survivor count [10] read?
A: 3 of 3

Q: How did the survivor count [14] turn out when `COc1ccn(C)c(=O)n1` was run?
A: 2 of 6

Q: And the survivor count [11]?
A: 1 of 6

Q: What about the survivor count [12] of the same molecule?
A: 0 of 6

Q: And the survivor count [13]?
A: 0 of 6
